These are yes or no findings as the source states them, for the method shown. For some of these results: In cells and extracts the contact can be indirect. Some results given as binding are weak or reduced against the parent protein; the word gives no strength.
Columns and labels:
[1] = molecular target: T1, SERRATE (SE) (Arabidopsis) (UniProt Q9ZVD0); test: split reporter; split luciferase complementation in wild type Arabidopsis protoplasts co-expressing cLUC and nLUC fusion proteins
T1 sequence: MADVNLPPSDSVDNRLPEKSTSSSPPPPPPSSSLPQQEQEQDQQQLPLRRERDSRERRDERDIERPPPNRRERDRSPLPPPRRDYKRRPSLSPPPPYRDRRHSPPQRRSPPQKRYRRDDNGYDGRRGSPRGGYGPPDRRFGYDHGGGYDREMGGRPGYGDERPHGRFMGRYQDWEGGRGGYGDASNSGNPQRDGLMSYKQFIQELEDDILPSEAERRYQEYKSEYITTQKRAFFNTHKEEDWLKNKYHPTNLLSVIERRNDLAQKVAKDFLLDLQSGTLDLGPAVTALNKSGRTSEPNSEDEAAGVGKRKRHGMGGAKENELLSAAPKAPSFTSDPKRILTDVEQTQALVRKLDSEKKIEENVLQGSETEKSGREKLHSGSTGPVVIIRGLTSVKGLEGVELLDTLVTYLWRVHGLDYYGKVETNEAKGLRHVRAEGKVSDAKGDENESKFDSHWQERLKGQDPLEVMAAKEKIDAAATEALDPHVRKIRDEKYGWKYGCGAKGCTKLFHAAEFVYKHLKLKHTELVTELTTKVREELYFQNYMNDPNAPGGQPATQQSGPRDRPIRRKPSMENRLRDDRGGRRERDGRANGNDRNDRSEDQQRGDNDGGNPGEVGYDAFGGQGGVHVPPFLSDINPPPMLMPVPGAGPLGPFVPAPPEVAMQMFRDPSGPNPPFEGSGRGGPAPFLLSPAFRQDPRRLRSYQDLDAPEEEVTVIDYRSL

[2] = molecular target: T1, SERRATE (SE) (Arabidopsis); test: two-hybrid; yeast strain AH109 (Clontech); genes in pGBKT7 (Gal4 DNA binding domain) or pGADT7 (Gal4 activation domain); growth on -LTH medium with 3-AT to reduce autoactivation

| Binder | binding [1] | binding [2] |
| --- | --- | --- |
| SnRK2.2 (enzyme, UniProt Q39192 1-362) MDPATNSPIMPIDLPIMHDSDRYDFVKDIGSGNFGVARLMTDRVTKELVAVKYIERGEKIDENVQREIINHRSLRHPNIVRFKEVILTPSHLAIVMEYAAGGELYERICNAGRFSEDEARFFFQQLISGVSYCHAMQICHRDLKLENTLLDGSPAPRLKICDFGYSKSSVLHSQPKSTVGTPAYIAPEILLRQEYDGKLADVWSCGVTLYVMLVGAYPFEDPQEPRDYRKTIQRILSVTYSIPEDLHLSPECRHLISRIFVADPATRITIPEITSDKWFLKNLPGDLMDENRMGSQFQEPEQPMQSLDTIMQIISEATIPTVRNRCLDDFMADNLDLDDDMDDFDSESEIDVDSSGEIVYAL | binds | binds |
| SnRK2.3 (enzyme, UniProt Q39193 1-361) MDRAPVTTGPLDMPIMHDSDRYDFVKDIGSGNFGVARLMRDKLTKELVAVKYIERGDKIDENVQREIINHRSLRHPNIVRFKEVILTPTHLAIIMEYASGGELYERICNAGRFSEDEARFFFQQLLSGVSYCHSMQICHRDLKLENTLLDGSPAPRLKICDFGYSKSSVLHSQPKSTVGTPAYIAPEVLLRQEYDGKIADVWSCGVTLYVMLVGAYPFEDPEEPRDYRKTIQRILSVKYSIPDDIRISPECCHLISRIFVADPATRISIPEIKTHSWFLKNLPADLMNESNTGSQFQEPEQPMQSLDTIMQIISEATIPAVRNRCLDDFMTDNLDLDDDMDDFDSESEIDIDSSGEIVYAL | binds | binds |
